No constants are given. Whether binding was seen depends on the method and setting. Some results given as binding are weak or reduced against the parent protein; the word gives no strength.
Target: VEGF-D (R&D Systems) (Homo sapiens (Human)) (UniProt O43915)
Assay: method not described

Protein sequences, listed by entry. Tags and fused reporters are not part of them. Lines headed by an entry give the natural chain unless they say otherwise; changes in a name come on top.
UniProt O43915: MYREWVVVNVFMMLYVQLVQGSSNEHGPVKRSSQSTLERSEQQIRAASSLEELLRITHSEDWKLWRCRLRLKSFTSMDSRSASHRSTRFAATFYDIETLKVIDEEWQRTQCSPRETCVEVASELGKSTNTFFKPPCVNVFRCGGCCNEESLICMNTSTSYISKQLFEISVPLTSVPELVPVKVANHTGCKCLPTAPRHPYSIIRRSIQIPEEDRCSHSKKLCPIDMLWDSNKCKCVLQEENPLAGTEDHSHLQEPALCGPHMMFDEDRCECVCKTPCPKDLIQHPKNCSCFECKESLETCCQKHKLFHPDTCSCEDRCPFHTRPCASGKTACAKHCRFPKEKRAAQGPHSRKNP
UniProt P35916: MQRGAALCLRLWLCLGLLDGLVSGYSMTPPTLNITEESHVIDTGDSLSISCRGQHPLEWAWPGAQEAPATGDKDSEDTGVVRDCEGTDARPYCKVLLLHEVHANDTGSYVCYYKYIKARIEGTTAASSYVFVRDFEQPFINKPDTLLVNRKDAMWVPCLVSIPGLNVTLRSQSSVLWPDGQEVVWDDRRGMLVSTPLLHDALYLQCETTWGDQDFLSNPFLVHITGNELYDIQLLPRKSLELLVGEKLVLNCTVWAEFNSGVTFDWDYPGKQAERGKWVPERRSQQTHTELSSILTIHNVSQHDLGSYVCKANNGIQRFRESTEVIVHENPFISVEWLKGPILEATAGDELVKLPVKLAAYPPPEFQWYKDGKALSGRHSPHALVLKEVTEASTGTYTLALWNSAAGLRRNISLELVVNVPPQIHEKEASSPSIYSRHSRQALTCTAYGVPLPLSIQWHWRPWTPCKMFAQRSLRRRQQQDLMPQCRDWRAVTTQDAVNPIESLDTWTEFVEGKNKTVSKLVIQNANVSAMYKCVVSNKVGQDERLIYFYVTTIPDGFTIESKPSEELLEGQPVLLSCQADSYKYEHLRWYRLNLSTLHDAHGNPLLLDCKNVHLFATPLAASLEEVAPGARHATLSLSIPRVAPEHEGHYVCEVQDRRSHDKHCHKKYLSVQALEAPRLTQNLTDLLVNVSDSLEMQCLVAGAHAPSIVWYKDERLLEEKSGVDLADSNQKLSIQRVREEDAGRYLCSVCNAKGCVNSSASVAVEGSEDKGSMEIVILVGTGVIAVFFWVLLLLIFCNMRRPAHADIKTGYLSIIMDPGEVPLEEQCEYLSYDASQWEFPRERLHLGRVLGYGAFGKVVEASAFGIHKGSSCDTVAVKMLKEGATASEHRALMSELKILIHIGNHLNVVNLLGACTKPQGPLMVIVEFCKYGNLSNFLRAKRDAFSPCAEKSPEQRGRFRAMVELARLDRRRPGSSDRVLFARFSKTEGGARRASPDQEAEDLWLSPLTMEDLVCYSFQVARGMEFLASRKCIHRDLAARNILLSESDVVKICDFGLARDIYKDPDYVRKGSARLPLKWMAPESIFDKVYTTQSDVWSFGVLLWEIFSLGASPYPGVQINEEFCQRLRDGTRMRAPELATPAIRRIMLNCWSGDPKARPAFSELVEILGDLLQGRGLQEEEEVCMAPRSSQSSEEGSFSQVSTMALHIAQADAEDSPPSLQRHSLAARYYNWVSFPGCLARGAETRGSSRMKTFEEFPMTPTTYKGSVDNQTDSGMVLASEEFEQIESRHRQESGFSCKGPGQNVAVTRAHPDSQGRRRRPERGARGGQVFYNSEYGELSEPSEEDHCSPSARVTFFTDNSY

binding: binds
Substance: full-length extracellular domain of VEGFR-3 (from UniProt P35916 25-775) (receptor)
